From paper PMC10518977 come the findings set out here.

These are yes or no findings as the source states them, for the method shown. Binding seen in cells or lysates may run through a third protein. Some results given as binding are weak or reduced against the parent protein; the word gives no strength. For some assays here: Tags and fused reporters may be left off the sequences shown.

The target in assay [1] is T1, Glutathione peroxidase 2 (GPX2), endogenous (human (endogenous in HCT116, HT29, HCT15, LS174T)) (UniProt P18283).
T1 sequence: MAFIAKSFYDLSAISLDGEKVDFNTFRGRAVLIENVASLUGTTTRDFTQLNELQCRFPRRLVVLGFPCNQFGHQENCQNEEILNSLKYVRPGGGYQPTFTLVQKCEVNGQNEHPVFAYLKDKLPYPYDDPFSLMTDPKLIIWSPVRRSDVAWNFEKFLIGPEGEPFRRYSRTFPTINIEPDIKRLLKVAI
The assay is described as follows: co-IP; endogenous proteins in HCT15 and LS174T cells; NP-40 lysis buffer, primary antibody overnight at 4°C, Protein A/G PLUS-Agarose; IP of ACVRL1 or of GPX2, IgG as negative control; also in cells with knockdown of USP15.

The target in assay [2] is Activin A receptor-like type 1 (ACVRL1), endogenous (human (endogenous in HCT15, LS174T)) (UniProt P37023). The assay is described as follows: co-IP; LS174T cells (endogenous by the legend; the text says ACVRL1 and GPX2 were overexpressed separately); also CRC cells with shNTC, shACVRL1 or knockdown of GPX2.
For assay [3], the target named is Full-length ACVRL1-Flag (Activin A receptor-like type 1) (UniProt P37023). The assay is described as follows: co-IP; HCT116 and HT29 cells transfected with Flag-ACVRL1; anti-DYKDDDDK magnetic agarose; western blot for GPX2.
In assay [4] the target is Activin A receptor-like type 1 (ACVRL1), endogenous (human (endogenous in HCT15, LS174T)) (UniProt P37023). Put plainly: co-IP; endogenous proteins in HCT15 and LS174T cells; NP-40 lysis buffer, primary antibody overnight at 4°C, Protein A/G PLUS-Agarose; IP of ACVRL1 or of GPX2, IgG as negative control; also in cells with knockdown of USP15.
Assay [5] concerns the target T2, Truncated ACVRL1(282-503aa)-Flag (UniProt P37023).
T2 sequence: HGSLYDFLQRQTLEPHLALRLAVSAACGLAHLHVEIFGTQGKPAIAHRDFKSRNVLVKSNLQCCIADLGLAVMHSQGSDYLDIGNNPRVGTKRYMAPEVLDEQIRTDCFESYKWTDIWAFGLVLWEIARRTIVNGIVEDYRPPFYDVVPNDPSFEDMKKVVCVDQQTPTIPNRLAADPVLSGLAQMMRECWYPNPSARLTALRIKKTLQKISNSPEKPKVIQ
Put plainly: co-IP; ACVRL1-Flag constructs and GPX2-HA co-transfected into LS174T and HCT15 cells; IP of Flag with subsequent western blot. For orientation: Immunoblotting shows a protein as a band on a membrane.

As for “Activin A receptor-like type 1 (ACVRL1), endogenous (from UniProt P37023 22-503)”, the binding entry in assay [1] is “binds”.

B1: Ubiquitin-specific peptidase 15 (USP15), endogenous (enzyme, UniProt Q9Y4E8 1-981)
chain: MAEGGAADLDTQRSDIATLLKTSLRKGDTWYLVDSRWFKQWKKYVGFDSWDKYQMGDQNVYPGPIDNSGLLKDGDAQSLKEHLIDELDYILLPTEGWNKLVSWYTLMEGQEPIARKVVEQGMFVKHCKVEVYLTELKLCENGNMNNVVTRRFSKADTIDTIEKEIRKIFSIPDEKETRLWNKYMSNTFEPLNKPDSTIQDAGLYQGQVLVIEQKNEDGTWPRGPSTPKSPGASNFSTLPKISPSSLSNNYNNMNNRNVKNSNYCLPSYTAYKNYDYSEPGRNNEQPGLCGLSNLGNTCFMNSAIQCLSNTPPLTEYFLNDKYQEELNFDNPLGMRGEIAKSYAELIKQMWSGKFSYVTPRAFKTQVGRFAPQFSGYQQQDCQELLAFLLDGLHEDLNRIRKKPYIQLKDADGRPDKVVAEEAWENHLKRNDSIIVDIFHGLFKSTLVCPECAKISVTFDPFCYLTLPLPMKKERTLEVYLVRMDPLTKPMQYKVVVPKIGNILDLCTALSALSGIPADKMIVTDIYNHRFHRIFAMDENLSSIMERDDIYVFEININRTEDTEHVIIPVCLREKFRHSSYTHHTGSSLFGQPFLMAVPRNNTEDKLYNLLLLRMCRYVKISTETEETEGSLHCCKDQNINGNGPNGIHEEGSPSEMETDEPDDESSQDQELPSENENSQSEDSVGGDNDSENGLCTEDTCKGQLTGHKKRLFTFQFNNLGNTDINYIKDDTRHIRFDDRQLRLDERSFLALDWDPDLKKRYFDENAAEDFEKHESVEYKPPKKPFVKLKDCIELFTTKEKLGAEDPWYCPNCKEHQQATKKLDLWSLPPVLVVHLKRFSYSRYMRDKLDTLVDFPINDLDMSEFLINPNAGPCRYNLIAVSNHYGGMGGGHYTAFAKNKDDGKWYYFDDSSVSTASEDQIVSKAAYVLFYQRQDTFSGTGFFPLDRETKGASAATGIPLESDEDSNDNDNDIENENCMHTN
As for B1, in assay [2], the binding result is reported as “binds”.

B2: Glutathione peroxidase 2 (GPX2), endogenous (enzyme, UniProt P18283 1-190)
chain: MAFIAKSFYDLSAISLDGEKVDFNTFRGRAVLIENVASLUGTTTRDFTQLNELQCRFPRRLVVLGFPCNQFGHQENCQNEEILNSLKYVRPGGGYQPTFTLVQKCEVNGQNEHPVFAYLKDKLPYPYDDPFSLMTDPKLIIWSPVRRSDVAWNFEKFLIGPEGEPFRRYSRTFPTINIEPDIKRLLKVAI
B2: the binding result in assay [3] and in assay [4] was “binds” throughout.

B3: GPX2-HA (enzyme, UniProt P18283 1-190)
chain: MAFIAKSFYDLSAISLDGEKVDFNTFRGRAVLIENVASLUGTTTRDFTQLNELQCRFPRRLVVLGFPCNQFGHQENCQNEEILNSLKYVRPGGGYQPTFTLVQKCEVNGQNEHPVFAYLKDKLPYPYDDPFSLMTDPKLIIWSPVRRSDVAWNFEKFLIGPEGEPFRRYSRTFPTINIEPDIKRLLKVAI
Regarding B3, the binding entry in assay [5] was “binds”.
